Reference: US20170022281A1
Positions count from the first letter of the chain named. No constants are given. Whether binding was seen depends on the method and setting. Some results given as binding are weak or reduced against the parent protein; the word gives no strength.

Chains of the proteins cited; added tags and fusions are not shown. Lines headed by an entry give the natural chain unless they say otherwise; changes in a name come on top. Residues count along the entry.
UniProt P16471: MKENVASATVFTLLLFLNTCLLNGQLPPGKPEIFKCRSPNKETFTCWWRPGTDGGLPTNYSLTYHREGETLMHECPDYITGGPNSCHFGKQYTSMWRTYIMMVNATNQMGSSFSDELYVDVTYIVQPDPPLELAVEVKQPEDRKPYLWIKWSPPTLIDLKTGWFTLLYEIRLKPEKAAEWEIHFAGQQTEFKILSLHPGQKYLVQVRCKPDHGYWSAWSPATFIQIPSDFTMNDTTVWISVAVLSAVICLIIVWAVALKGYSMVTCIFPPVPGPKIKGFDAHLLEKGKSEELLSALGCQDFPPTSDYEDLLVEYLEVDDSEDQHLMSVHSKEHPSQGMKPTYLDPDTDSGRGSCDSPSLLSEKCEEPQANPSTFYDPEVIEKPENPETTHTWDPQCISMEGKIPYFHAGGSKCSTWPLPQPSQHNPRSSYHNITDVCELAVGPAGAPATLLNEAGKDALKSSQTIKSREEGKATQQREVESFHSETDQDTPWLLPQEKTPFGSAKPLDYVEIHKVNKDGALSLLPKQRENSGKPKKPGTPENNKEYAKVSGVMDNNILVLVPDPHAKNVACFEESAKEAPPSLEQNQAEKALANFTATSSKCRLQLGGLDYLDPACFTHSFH
UniProt Q08501, residues 20-229: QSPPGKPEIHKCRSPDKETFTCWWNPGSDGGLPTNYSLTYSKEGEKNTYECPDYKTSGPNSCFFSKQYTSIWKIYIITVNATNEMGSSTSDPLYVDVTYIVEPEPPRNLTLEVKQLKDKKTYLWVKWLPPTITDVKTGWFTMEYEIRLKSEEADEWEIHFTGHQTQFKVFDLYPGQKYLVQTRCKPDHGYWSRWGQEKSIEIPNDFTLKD

B1: Ab53 (antibody, human IgG1, kappa, V domains shown)
VH: EVQLVQSGAEVKKPGSSVKVSCKASGYTFTSYWIHWVRQAPGQGLEWIGEIDPSDSYTNYNQKFKGRVTITVDKSTSTAYMELSSLRSEDTAVYYCARSFFTNWFAYWGQGTLVTVSS
VL: DVVMTQTPLSLSVTPGQPASISCRSSQSLVHSNGNTYLHWYLQKPGQSPQLLIYKVSNRFSGVPDRFSGSGSGTDFTLKISRVEAEDVGVYFCSQSTHVPFTFGGGTKVEIKR
B2: Ab39 (antibody, human IgG1, kappa, V domains shown)
VH: B1 VH with V68A, I70L, T76S
VL: B1 VL
B3: Ab36 (antibody, human IgG1, kappa, V domains shown)
VH: B1 VH with I48M, V72A
VL: B1 VL
B4: Ab55 (antibody, human IgG1, kappa, V domains shown)
VH: B1 VH with V68A, I70L, K74R, T76S, A97G
VL: B1 VL
B5: Ab54 (antibody, human IgG1, kappa, V domains shown)
VH: B1 VH with V68A, I70L, T76S, A97G
VL: B1 VL
B6: Ab30 (antibody, human IgG1, kappa, V domains shown)
VH: EVQLVQSGAEVKKPGSSVKVSCKASGYTFTSFWMHWVRQAPGQGLEWIGVIDPSDTYTNYNQKFKGRATLTVDESSSTAYMELSSLRSEDTAVYYCARGDYSNWFTYWGQGTLVTVSS
VL: B1 VL with S28R, F101W

molecular target: human PRLR (Biacore antigen) (human) (UniProt P16471); test: SPR Biacore

binding	Binder
binds	B1

molecular target: human PRLR (Biacore antigen) (human) (UniProt P16471); test: SPR (Biacore); huPRLR binding kinetics, ka against kd plot

binding	Binder
binds	B2
binds	B3
binds	B1
binds	B4
binds	B5
binds	B6

molecular target: cyno PRLR (Biacore antigen) (cyno); test: SPR (Biacore T200), mAb captured by anti-Fc, PRLR injected; ka against kd plot

binding	Binder
binds	B2
binds	B3
binds	B1
binds	B4
binds	B5

molecular target: human PRLR (Biacore antigen) (human) (UniProt P16471); test: as above

binding	Binder
binds	B2
binds	B3
binds	B1
binds	B4
binds	B5

molecular target: murine PRLR (Biacore antigen) (murine) (UniProt Q08501); test: as above

binding	Binder
binds	B4
binds	B5
